The test system of this data set is Human ovarian cancer cell line SKOV3. Put plainly: Therapeutic index (phototoxicity IC90 vs dark toxicity IC10). The format is cell-based. To be noted: calculated using phototoxicity IC90 vs dark toxicity IC10, SKOV3 cells.

Where a name gives a salt, the structure may show the parent alone.

As to `C=Cc1c(C)c2cc3nc(c(C)c4cc(C)c(cc5nc(cc1[nH]2)C(C)=C5CC)[nH]4)[C@@H](CCCOC(C)=O)[C@@H]3C` [Compound 2, 3-((7S,8S)-18-ethyl-2,5,8,12,17-pentamethyl-13-vinyl-7H,8H-porphyrin-7-yl)propyl acetate], the “Therapeutic Index” value is reported as 139.44.

In the case of `C=Cc1c(C)c2cc3nc(c(C)c4cc(C)c(cc5nc(cc1[nH]2)C(C)=C5CC)[nH]4)[C@@H](CCC[n+]1ccccc1)[C@@H]3C` [Compound 9, phyllochlorin 3-pyridiniumpropyl iodide], the “Therapeutic Index” value is listed as 818.33.

As for `C=Cc1c(C)c2cc3nc(c(C)c4cc(C)c(cc5nc(cc1[nH]2)C(C)=C5CC)[nH]4)[C@@H](CCCSCCCS[C@@H]1O[C@H](CO)[C@@H](O)[C@H](O)[C@H]1O)[C@@H]3C` [Compound 4, (2S,3R,4S,5S,6R)-2-((3-((3-((7S,8S)-18-ethyl-2,5,8,12,17-pentamethyl-13-vinyl-7H,8H-porphyrin-7-yl)propyl)thio)propyl)thio)-6-(hydroxymethyl)tetrahydro-2H-pyran-3,4,5-triol], the “Therapeutic Index” value is recorded as 330.43.

Take `C=Cc1c(C)c2cc3nc(c(C)c4cc(C)c(cc5nc(cc1[nH]2)C(C)=C5CC)[nH]4)[C@@H](CCCS[C@@H]1O[C@H](CO)[C@@H](O)[C@H](O)[C@H]1O)[C@@H]3C` [Compound 5]: the “Therapeutic Index” value is 263.60.

For the compound `C=Cc1c(C)c2cc3nc(c(C)c4cc(C)c(cc5nc(cc1[nH]2)C(C)=C5CC)[nH]4)[C@@H](CCCN)[C@@H]3C` [Compound 7, phyllochlorin 3-aminopropyl], the “Therapeutic Index” value is 231.00.

For the compound `C=Cc1c(C)c2cc3nc(c(C)c4cc(C)c(cc5nc(cc1[nH]2)C(C)=C5CC)[nH]4)[C@@H](CCC[P+](c1ccccc1)(c1ccccc1)c1ccccc1)[C@@H]3C` [Compound 10, phyllochlorin 3-triphenylphosphoniumpropyl iodide], the “Therapeutic Index” value is recorded as 1,506.67.

For `C=Cc1c(C)c2cc3nc(c(C)c4cc(C)c(cc5nc(cc1[nH]2)C(C)=C5CC)[nH]4)[C@@H](CCCO)[C@@H]3C` [Compound 1, 3-((7S,8S)-18-ethyl-2,5,8,12,17-pentamethyl-13-vinyl-7H,8H-porphyrin-7-yl)propan-1-ol], the “Therapeutic Index” value is reported as 384.17.

Regarding `C=Cc1c(C)c2cc3nc(c(C)c4cc(C)c(cc5nc(cc1[nH]2)C(C)=C5CC)[nH]4)[C@@H](CCCNC(=O)[C@@H](N)C(C)C)[C@@H]3C` [Compound 8, phyllochlorin 3-aminopropyl-valine amide hydrochloride], the “Therapeutic Index” value was 132.11.

Source of the values: patent US20260193265A1, “Phyllochlorin analogues suitable for use in photodynamic therapy (PDT)” (RMW CHO Group Limited, priority 2022, published 2026).
